Data published in article PMC3305387.
Results are given in words; binding and its absence hold for the method and conditions named. Binding seen in cells or lysates may run through a third protein. Some entries that bind do so weakly or less than the wild type.

Protein sequences, listed by entry. Tags and fused reporters are not part of them.
UniProt Q61188: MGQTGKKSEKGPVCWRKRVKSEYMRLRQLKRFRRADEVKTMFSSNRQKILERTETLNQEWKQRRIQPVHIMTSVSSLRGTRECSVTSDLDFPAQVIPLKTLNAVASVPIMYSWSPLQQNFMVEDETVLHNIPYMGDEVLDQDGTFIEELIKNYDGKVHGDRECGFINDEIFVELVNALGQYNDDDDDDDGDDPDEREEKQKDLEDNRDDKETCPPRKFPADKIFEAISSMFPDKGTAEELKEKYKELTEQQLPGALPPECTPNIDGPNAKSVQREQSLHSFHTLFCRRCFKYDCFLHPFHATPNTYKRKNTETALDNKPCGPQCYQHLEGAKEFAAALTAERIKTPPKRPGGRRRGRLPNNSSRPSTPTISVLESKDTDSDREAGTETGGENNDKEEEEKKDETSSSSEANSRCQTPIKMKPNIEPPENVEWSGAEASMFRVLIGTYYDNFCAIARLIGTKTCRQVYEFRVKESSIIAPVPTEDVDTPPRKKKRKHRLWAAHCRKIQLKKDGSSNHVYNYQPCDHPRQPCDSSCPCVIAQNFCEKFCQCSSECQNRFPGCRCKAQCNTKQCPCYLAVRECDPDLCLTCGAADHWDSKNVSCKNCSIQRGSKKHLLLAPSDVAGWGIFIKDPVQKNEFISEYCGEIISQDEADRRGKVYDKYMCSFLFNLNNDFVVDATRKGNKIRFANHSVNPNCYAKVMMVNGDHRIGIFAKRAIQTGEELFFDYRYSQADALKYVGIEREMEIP
UniProt Q80U70: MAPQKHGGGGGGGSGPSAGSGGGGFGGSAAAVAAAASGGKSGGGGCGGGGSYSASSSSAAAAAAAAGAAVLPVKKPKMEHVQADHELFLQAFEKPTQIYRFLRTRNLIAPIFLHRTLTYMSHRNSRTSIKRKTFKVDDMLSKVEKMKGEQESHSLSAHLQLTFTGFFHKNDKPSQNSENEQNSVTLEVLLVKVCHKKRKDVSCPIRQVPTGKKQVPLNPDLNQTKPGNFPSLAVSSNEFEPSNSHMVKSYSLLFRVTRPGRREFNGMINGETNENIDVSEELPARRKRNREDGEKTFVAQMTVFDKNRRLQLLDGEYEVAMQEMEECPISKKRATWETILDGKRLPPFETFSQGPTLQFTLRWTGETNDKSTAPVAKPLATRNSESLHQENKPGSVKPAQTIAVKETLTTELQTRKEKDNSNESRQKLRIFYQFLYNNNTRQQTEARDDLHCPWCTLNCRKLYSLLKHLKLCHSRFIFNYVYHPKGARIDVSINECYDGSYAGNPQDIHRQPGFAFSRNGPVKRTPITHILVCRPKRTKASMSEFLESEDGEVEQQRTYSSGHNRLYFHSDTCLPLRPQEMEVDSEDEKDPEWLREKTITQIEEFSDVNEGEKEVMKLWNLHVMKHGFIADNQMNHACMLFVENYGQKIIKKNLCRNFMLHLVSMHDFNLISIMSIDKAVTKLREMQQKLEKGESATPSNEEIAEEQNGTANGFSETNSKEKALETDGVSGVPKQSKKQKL
UniProt Q02395: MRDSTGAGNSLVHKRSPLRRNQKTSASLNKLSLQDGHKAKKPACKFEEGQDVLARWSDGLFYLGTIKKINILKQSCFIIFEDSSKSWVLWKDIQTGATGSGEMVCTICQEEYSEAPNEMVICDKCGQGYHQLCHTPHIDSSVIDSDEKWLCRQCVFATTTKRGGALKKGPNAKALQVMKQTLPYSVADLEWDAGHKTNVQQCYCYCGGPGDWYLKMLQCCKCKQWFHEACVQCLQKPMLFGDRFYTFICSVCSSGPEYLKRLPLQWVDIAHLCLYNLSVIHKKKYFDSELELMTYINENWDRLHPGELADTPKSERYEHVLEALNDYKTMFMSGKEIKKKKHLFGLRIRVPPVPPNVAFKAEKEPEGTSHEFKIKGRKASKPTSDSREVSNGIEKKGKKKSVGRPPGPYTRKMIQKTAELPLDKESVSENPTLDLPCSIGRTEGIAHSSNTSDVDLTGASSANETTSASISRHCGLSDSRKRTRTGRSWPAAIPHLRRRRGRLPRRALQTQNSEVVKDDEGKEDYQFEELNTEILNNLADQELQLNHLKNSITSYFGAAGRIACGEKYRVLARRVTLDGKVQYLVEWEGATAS
UniProt Q921E6: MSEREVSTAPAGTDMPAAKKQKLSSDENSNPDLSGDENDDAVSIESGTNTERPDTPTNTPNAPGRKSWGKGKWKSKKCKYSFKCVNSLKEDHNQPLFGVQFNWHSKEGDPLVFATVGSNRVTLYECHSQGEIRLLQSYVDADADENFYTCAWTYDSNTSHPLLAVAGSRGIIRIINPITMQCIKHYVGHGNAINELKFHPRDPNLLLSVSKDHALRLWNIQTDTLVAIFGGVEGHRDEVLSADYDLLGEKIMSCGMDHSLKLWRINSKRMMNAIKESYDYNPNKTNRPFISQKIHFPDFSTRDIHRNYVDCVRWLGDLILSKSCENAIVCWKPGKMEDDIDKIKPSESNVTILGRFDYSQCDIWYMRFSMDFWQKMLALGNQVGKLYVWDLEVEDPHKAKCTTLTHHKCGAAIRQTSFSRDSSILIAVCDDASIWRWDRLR

Legend:
[1] = target: Ezh2 (mouse (endogenous in E14 ESCs)) (UniProt Q61188); test: co-IP; co-immunoprecipitation of the PRC2 core components from scramble and Pcl3 shRNA-expressing ESCs
[2] = target: Suz12 (mouse (endogenous in E14 ESCs)) (UniProt Q80U70); test: as above
Suz12-TAP (mouse) = Suz12-TAP (mouse) (UniProt Q80U70); test: co-IP; FlagM2 resin (40 µl) added to 800 µg ESC protein lysate overnight; TAP-tagged bait precipitated, immunoblot; scramble and Pcl3 shRNA cells where used
[3] = target: Pcl2 (mouse (endogenous in E14 ESCs)) (UniProt Q02395); test: co-IP; reciprocal immunoprecipitation of Pcl2 from ESCs expressing Suz12-TAP or Pcl3-TAP; immunoblot

Substance: Eed (from UniProt Q921E6 1-441)
- binding [1]: binds
- binding [2]: binds

Substance: Pcl2 (from UniProt Q02395 1-593)
- binding (Suz12-TAP (mouse)): binds

Substance: Suz12-TAP (from UniProt Q80U70 1-741)
- binding [3]: binds
